Measurements from the supplement of paper PMC6078165.
± gives the standard deviation of the averaged measurements. The reference is the same well before dosing, and untreated signal decays as well.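 Fibroblast labels denote human fibroblasts, mainly primary ones from uterus (C12385, HUF), lung (H6013), bone (Hs27A), adrenal (HADF) and skin (WS1), plus mammary HMF and breast cancer-associated Hs343T. Cancer cells are basal-like or mesenchymal-like triple-negative breast cancer lines. A hit is a response shift exceeding 3x replicate standard deviation. The tissue of the other fibroblasts is not given here.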

Tested on: MDAMB231
Assay: relative JC-1 red fluorescence (viability) vs pre-drug, coculture with fibroblast (fraction); higher = more viable cancer cells
Procedure: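 JC-1 labelled TNBC cells cocultured 1:1 (1,500 cells each) with CellTrace Violet stained primary or stromal fibroblasts in 384-well plates in FluoroBrite medium, treated with one of 42 anticancer drugs at 0.1, 1, 10 or 100 uM. JC-1 red fluorescence (mitochondrial integrity in cancer cells only) was read by plate reader every 8 h for 72 h. Values are normalised to each well's pre-drug value. The stock of one drug was tenfold lower, so its dose labels may be too high.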

O=c1[nH]cc(F)c(=O)[nH]1 [Fluorouracil]
relative JC-1 red fluorescence
Details | 8 h | 16 h | 24 h | 32 h | 40 h | 48 h | 56 h | 64 h | 72 h
0.1 µM, coculture fibroblast: C12385 | 0.766 ± 0.0075 | 0.7088 ± 0.0061 | 0.642 ± 0.0056 | 0.598 ± 0.013 | 0.535 ± 0.012 | 0.503 ± 0.0067 | 0.459 ± 0.014 | 0.456 ± 0.0077 | 0.435 ± 0.022
0.1 µM, coculture fibroblast: H6013 | 0.881 ± 0.013 | 0.785 ± 0.01 | 0.7501 ± 0.0043 | 0.7411 ± 0.0039 | 0.699 ± 0.011 | 0.679 ± 0.02 | 0.653 ± 0.02 | 0.644 ± 0.022 | 0.604 ± 0.03
0.1 µM, coculture fibroblast: H6019 | 0.812 ± 0.054 | 0.723 ± 0.086 | 0.661 ± 0.14 | 0.653 ± 0.17 | 0.617 ± 0.18 | 0.594 ± 0.18 | 0.554 ± 0.2 | 0.542 ± 0.2 | 0.499 ± 0.19
0.1 µM, coculture fibroblast: H6076 | 0.897 ± 0.056 | 0.788 ± 0.038 | 0.727 ± 0.013 | 0.697 ± 0.0094 | 0.666 ± 0.018 | 0.615 ± 0.02 | 0.588 ± 0.03 | 0.573 ± 0.034 | 0.551 ± 0.052
0.1 µM, coculture fibroblast: H6231 | 0.893 ± 0.018 | 0.791 ± 0.022 | 0.701 ± 0.011 | 0.642 ± 0.011 | 0.57895 ± 0.00027 | 0.54734 ± 3.6e-05 | 0.506 ± 0.006 | 0.487 ± 0.0096 | 0.4611 ± 0.0008
0.1 µM, coculture fibroblast: HADF | 0.85 ± 0.027 | 0.805 ± 0.04 | 0.731 ± 0.024 | 0.70543 ± 0.00065 | 0.657 ± 0.016 | 0.63 ± 0.04 | 0.603 ± 0.04 | 0.583 ± 0.05 | 0.541 ± 0.055
0.1 µM, coculture fibroblast: HCFa | 0.88 | 0.8 | 0.742 | 0.708 | 0.653 | 0.619 | 0.587 | 0.563 | 0.521
0.1 µM, coculture fibroblast: HCPF | 0.926 ± 0.026 | 0.847 ± 0.0079 | 0.777 ± 0.037 | 0.762 ± 0.069 | 0.711 ± 0.096 | 0.684 ± 0.12 | 0.649 ± 0.14 | 0.618 ± 0.16 | 0.604 ± 0.18
0.1 µM, coculture fibroblast: HHSteC | 0.916 ± 0.026 | 0.847 ± 0.021 | 0.794 ± 0.013 | 0.75 ± 0.016 | 0.704 ± 0.021 | 0.67 ± 0.01 | 0.6164 ± 0.0034 | 0.60153 ± 0.00053 | 0.55603 ± 0.00023
0.1 µM, coculture fibroblast: HMF | 0.888 ± 0.019 | 0.788 ± 0.016 | 0.728 ± 0.064 | 0.687 ± 0.08 | 0.653 ± 0.11 | 0.611 ± 0.13 | 0.58 ± 0.14 | 0.562 ± 0.15 | 0.549 ± 0.16
0.1 µM, coculture fibroblast: HPFa | 0.969 ± 0.037 | 0.9248 ± 0.0011 | 0.8742 ± 0.0034 | 0.821 ± 0.012 | 0.805 ± 0.023 | 0.764 ± 0.032 | 0.707 ± 0.056 | 0.684 ± 0.066 | 0.634 ± 0.088
0.1 µM, coculture fibroblast: HUF | 0.8721 ± 0.0011 | 0.766 ± 0.027 | 0.742 ± 0.011 | 0.64 ± 0.018 | 0.573 ± 0.03 | 0.546 ± 0.034 | 0.488 ± 0.031 | 0.48 ± 0.031 | 0.46 ± 0.034
0.1 µM, coculture fibroblast: Hs5 | 0.853 ± 0.033 | 0.76 ± 0.015 | 0.713 ± 0.014 | 0.676 ± 0.0069 | 0.6504 ± 0.00081 | 0.59717 ± 0.00044 | 0.5665 ± 0.0033 | 0.546 ± 0.0089 | 0.5144 ± 0.0021
0.1 µM, coculture fibroblast: Hs27A | 0.882 ± 0.035 | 0.818 ± 0.055 | 0.773 ± 0.048 | 0.748 ± 0.049 | 0.691 ± 0.042 | 0.628 ± 0.034 | 0.626 ± 0.036 | 0.595 ± 0.03 | 0.542 ± 0.029
0.1 µM, coculture fibroblast: Hs343T | 0.89 ± 0.026 | 0.768 ± 0.026 | 0.71033 ± 0.0002 | 0.676 ± 0.012 | 0.623 ± 0.013 | 0.582 ± 0.0082 | 0.528 ± 0.01 | 0.503 ± 0.012 | 0.48 ± 0.0056
0.1 µM, coculture fibroblast: WS1 | 0.7522 ± 0.0053 | 0.661 ± 0.03 | 0.603 ± 0.021 | 0.526 ± 0.007 | 0.478 ± 0.015 | 0.457 ± 0.016 | 0.42 ± 0.019 | 0.412 ± 0.028 | 0.389 ± 0.033
1 µM, coculture fibroblast: C12385 | 0.7472 ± 0.0062 | 0.686 ± 0.022 | 0.6656 ± 0.0036 | 0.609 ± 0.021 | 0.548 ± 0.026 | 0.522 ± 0.027 | 0.487 ± 0.019 | 0.484 ± 0.018 | 0.471 ± 0.016
1 µM, coculture fibroblast: H6013 | 0.888 ± 0.03 | 0.889 ± 0.097 | 0.86 ± 0.12 | 0.855 ± 0.18 | 0.833 ± 0.22 | 0.688 ± 0.051 | 0.659 ± 0.05 | 0.79 ± 0.28 | 0.736 ± 0.28
1 µM, coculture fibroblast: H6019 | 0.745 ± 0.038 | 0.673 ± 0.058 | 0.615 ± 0.0067 | 0.581 ± 0.05 | 0.531 ± 0.045 | 0.506 ± 0.021 | 0.463 ± 0.022 | 0.443 ± 0.012 | 0.405 ± 0.022
1 µM, coculture fibroblast: H6076 | 0.929 ± 0.065 | 0.847 ± 0.11 | 0.79 ± 0.11 | 0.778 ± 0.096 | 0.734 ± 0.11 | 0.691 ± 0.14 | 0.673 ± 0.14 | 0.668 ± 0.14 | 0.654 ± 0.13
1 µM, coculture fibroblast: H6231 | 0.886 ± 0.038 | 0.803 ± 0.022 | 0.788 ± 0.083 | 0.735 ± 0.074 | 0.67 ± 0.076 | 0.74 ± 0.22 | 0.699 ± 0.22 | 0.704 ± 0.25 | 0.641 ± 0.2
1 µM, coculture fibroblast: HADF | 0.893 ± 0.013 | 0.82 ± 0.01 | 0.782 ± 0.02 | 0.743 ± 0.015 | 0.705 ± 0.026 | 0.669 ± 0.031 | 0.643 ± 0.033 | 0.621 ± 0.033 | 0.577 ± 0.046
1 µM, coculture fibroblast: HCFa | 0.894 ± 0.016 | 0.82413 ± 0.00033 | 0.778 ± 0.0089 | 0.745 ± 0.024 | 0.693 ± 0.024 | 0.65 ± 0.021 | 0.612 ± 0.023 | 0.573 ± 0.025 | 0.529 ± 0.024
1 µM, coculture fibroblast: HCPF | 0.874 ± 0.013 | 0.7802 ± 0.0076 | 0.686 ± 0.019 | 0.645 ± 0.024 | 0.585 ± 0.034 | 0.547 ± 0.035 | 0.506 ± 0.039 | 0.478 ± 0.039 | 0.45 ± 0.04
1 µM, coculture fibroblast: HHSteC | 0.8857 ± 0.0073 | 0.843 ± 0.014 | 0.794 ± 0.015 | 0.734 ± 0.0081 | 0.687 ± 0.0096 | 0.654 ± 0.012 | 0.611 ± 0.019 | 0.579 ± 0.013 | 0.535 ± 0.014
1 µM, coculture fibroblast: HMF | 0.879 ± 0.044 | 0.76 ± 0.039 | 0.69 ± 0.0044 | 0.6535 ± 0.0012 | 0.6 ± 0.0093 | 0.56 ± 0.012 | 0.522 ± 0.023 | 0.507 ± 0.026 | 0.49 ± 0.023
1 µM, coculture fibroblast: HPFa | 0.9412 ± 0.0091 | 0.871 ± 0.016 | 0.812 ± 0.024 | 0.743 ± 0.039 | 0.709 ± 0.06 | 0.663 ± 0.043 | 0.604 ± 0.048 | 0.573 ± 0.057 | 0.513 ± 0.062
1 µM, coculture fibroblast: HUF | 0.863 ± 0.048 | 0.785 ± 0.074 | 0.804 ± 0.14 | 0.694 ± 0.15 | 0.631 ± 0.16 | 0.613 ± 0.17 | 0.569 ± 0.17 | 0.564 ± 0.18 | 0.541 ± 0.18
1 µM, coculture fibroblast: Hs5 | 0.906 ± 0.033 | 0.804 ± 0.027 | 0.763 ± 0.038 | 0.73 ± 0.042 | 0.693 ± 0.041 | 0.636 ± 0.037 | 0.604 ± 0.038 | 0.577 ± 0.036 | 0.552 ± 0.038
1 µM, coculture fibroblast: Hs27A | 0.8727 ± 0.0035 | 0.794 ± 0.014 | 0.757 ± 0.017 | 0.7211 ± 0.0026 | 0.6751 ± 0.00076 | 0.628 ± 0.0094 | 0.6091 ± 0.0017 | 0.5879 ± 0.00086 | 0.5317 ± 0.00071
1 µM, coculture fibroblast: Hs343T | 0.9114 ± 0.0071 | 0.7941 ± 0.0055 | 0.719 ± 0.024 | 0.678 ± 0.021 | 0.618 ± 0.024 | 0.562 ± 0.039 | 0.512 ± 0.04 | 0.491 ± 0.03 | 0.455 ± 0.032
1 µM, coculture fibroblast: WS1 | 0.7659 ± 0.0071 | 0.7 ± 0.032 | 0.629 ± 0.013 | 0.573 ± 0.008 | 0.518 ± 0.021 | 0.491 ± 0.024 | 0.445 ± 0.032 | 0.426 ± 0.036 | 0.4 ± 0.034
